{"sequences": {"note": "Sequences of proteins named here, by UniProt entry; tags and fusion partners are left off. Residues count along the entry.", "UniProt Q9Y572": "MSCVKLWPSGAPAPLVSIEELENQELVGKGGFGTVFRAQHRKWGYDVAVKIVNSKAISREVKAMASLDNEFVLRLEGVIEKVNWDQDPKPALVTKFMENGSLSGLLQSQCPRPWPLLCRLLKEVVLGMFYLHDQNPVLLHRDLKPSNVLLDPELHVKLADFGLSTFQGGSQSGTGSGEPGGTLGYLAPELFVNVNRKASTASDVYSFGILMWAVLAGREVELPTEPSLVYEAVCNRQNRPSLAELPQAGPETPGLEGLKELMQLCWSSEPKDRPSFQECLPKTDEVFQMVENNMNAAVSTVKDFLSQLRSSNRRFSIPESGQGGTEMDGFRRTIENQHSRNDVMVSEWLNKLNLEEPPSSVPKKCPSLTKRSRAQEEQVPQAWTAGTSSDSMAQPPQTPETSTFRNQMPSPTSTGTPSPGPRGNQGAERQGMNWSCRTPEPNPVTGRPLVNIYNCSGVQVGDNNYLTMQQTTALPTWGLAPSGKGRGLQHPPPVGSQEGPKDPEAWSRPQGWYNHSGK", "UniProt P19838, residues 1-433": "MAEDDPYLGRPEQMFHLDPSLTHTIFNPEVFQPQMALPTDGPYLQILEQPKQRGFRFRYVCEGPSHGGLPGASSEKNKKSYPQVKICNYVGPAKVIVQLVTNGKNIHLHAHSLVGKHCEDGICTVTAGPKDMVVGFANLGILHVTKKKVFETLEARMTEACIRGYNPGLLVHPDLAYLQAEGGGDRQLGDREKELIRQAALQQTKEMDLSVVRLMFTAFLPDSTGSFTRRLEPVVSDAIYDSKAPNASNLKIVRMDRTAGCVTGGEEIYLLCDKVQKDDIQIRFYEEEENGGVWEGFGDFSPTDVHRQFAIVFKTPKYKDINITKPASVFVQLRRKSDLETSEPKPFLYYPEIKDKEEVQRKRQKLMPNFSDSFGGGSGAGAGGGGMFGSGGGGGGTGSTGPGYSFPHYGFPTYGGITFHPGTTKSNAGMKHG", "UniProt Q04206": "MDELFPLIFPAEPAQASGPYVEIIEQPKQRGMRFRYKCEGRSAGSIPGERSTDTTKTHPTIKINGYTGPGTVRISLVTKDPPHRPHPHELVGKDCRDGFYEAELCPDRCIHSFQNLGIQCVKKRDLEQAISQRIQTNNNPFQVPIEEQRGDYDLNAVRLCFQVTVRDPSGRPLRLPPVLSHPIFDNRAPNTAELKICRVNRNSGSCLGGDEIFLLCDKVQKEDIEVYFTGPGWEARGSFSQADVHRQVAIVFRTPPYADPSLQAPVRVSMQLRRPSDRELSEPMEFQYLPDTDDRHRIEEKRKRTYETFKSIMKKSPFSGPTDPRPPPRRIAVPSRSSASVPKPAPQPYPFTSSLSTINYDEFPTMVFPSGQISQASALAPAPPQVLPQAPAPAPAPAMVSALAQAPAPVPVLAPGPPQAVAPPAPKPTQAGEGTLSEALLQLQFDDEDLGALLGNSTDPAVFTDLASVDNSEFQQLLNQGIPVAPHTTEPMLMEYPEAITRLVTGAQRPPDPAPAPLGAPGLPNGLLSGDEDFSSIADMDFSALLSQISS", "UniProt P25445, residues 26-335": "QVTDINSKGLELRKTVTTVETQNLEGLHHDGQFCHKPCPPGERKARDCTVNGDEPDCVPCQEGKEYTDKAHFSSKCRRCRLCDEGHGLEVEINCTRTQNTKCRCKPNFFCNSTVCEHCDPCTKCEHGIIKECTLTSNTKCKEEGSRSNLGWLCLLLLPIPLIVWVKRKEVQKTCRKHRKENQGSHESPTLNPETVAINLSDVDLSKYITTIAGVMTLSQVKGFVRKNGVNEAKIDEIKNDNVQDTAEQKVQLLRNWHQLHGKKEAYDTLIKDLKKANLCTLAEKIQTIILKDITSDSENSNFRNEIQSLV", "UniProt Q13546": "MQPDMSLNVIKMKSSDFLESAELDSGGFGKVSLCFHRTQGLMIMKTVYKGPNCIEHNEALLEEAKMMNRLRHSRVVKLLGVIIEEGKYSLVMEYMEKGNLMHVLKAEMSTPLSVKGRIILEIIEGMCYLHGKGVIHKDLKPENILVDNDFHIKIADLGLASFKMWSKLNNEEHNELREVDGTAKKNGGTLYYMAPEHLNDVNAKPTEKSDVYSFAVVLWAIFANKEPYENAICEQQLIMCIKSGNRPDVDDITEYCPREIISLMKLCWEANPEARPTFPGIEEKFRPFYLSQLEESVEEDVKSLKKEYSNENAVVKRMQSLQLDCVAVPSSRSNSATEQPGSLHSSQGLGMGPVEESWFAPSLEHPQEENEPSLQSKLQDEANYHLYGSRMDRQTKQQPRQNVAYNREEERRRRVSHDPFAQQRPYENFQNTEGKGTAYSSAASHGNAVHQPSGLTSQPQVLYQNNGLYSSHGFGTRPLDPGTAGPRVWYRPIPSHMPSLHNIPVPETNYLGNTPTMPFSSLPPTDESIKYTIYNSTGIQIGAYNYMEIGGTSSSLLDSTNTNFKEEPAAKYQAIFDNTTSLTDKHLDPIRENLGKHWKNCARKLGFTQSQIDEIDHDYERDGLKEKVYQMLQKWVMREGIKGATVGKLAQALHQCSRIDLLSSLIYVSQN"}, "source": "paper doi:10.1101/2021.04.07.438830", "about": "(bioRxiv, 2021)", "key": {"RIP3-F2": {"target": "RIP3-F2 (UniProt Q9Y572)", "test": "split reporter"}, "[1]": {"target": "p50 (NFκB1), endogenous (human (endogenous in MDA-MB-231 or HEK293T)) (UniProt P19838)", "test": "co-IP"}, "Flag-KPC2": {"target": "T1, Flag-KPC2 (UniProt Q9BSL1)", "T1 sequence": "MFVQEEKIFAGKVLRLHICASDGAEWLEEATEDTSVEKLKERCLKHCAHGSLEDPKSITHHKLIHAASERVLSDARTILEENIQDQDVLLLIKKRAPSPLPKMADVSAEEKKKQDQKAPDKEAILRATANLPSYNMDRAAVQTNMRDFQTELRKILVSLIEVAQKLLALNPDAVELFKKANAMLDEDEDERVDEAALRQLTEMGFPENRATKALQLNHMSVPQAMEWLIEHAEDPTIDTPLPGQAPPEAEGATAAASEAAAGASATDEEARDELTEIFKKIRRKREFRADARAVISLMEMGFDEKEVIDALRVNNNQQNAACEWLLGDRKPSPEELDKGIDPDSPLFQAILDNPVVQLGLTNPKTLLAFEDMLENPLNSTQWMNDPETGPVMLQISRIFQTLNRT", "test": "co-IP"}, "Flag-p65": {"target": "Flag-p65 (UniProt Q04206)", "test": "co-IP"}, "Flag-KPC1": {"target": "T2, Flag-KPC1 (UniProt Q5XPI4)", "T2 sequence": "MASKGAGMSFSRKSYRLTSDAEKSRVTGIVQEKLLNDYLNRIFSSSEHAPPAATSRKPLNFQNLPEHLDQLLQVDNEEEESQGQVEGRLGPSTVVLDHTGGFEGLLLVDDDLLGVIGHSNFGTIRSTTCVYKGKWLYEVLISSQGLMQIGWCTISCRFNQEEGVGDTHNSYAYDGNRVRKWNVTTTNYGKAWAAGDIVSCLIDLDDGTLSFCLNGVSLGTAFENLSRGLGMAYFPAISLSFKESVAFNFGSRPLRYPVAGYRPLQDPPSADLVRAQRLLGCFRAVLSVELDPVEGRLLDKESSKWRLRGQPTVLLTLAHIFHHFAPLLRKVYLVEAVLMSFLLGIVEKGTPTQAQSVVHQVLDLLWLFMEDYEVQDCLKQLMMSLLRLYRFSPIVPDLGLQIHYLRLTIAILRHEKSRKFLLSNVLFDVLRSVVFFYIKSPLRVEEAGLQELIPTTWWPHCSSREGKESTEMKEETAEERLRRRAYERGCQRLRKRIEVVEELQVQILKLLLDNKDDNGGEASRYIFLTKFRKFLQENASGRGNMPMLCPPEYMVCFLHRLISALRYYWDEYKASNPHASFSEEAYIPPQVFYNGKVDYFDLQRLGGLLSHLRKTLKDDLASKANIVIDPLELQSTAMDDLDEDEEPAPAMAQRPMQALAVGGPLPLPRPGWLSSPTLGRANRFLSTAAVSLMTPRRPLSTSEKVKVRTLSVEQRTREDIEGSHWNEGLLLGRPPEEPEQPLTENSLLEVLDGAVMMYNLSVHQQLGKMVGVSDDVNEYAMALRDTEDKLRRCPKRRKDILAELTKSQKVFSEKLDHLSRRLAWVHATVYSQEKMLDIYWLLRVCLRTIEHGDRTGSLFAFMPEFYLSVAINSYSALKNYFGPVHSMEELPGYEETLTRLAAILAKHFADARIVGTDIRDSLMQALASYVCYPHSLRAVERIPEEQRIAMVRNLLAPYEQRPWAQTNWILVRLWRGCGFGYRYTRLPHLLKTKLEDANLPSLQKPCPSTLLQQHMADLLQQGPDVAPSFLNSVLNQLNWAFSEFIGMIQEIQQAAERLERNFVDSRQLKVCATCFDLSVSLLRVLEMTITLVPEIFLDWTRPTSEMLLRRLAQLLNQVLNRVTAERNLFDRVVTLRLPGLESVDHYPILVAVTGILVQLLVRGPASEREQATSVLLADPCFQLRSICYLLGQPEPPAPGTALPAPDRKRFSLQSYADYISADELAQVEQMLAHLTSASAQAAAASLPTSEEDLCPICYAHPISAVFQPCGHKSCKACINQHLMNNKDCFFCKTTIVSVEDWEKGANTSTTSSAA", "test": "co-IP"}, "[2]": {"target": "CD95 fused to the C-term region of Renilla luciferase (F2) (human) (UniProt P25445)", "test": "split reporter"}}, "note": "Results are given in words; binding and its absence hold for the method and conditions named. Binding seen in cells or lysates may run through a third protein. Some results given as binding are weak or reduced against the parent protein; the word gives no strength. For part of these data: Tags and fused reporters may be left off the sequences shown.", "data": [{"molecule": "RIP1-F1 (from UniProt Q13546 1-671)", "values": [{"measurement": "binding", "setting": "RIP3-F2", "result": "binds"}]}, {"molecule": "p65 (RelA), endogenous (from UniProt Q04206 1-551)", "values": [{"measurement": "binding", "setting": "[1]", "result": "binds"}]}, {"molecule": "p65-Renilla luciferase (domain F1) (from UniProt Q04206 1-551)", "values": [{"measurement": "binding", "setting": "Flag-KPC2", "result": "binds"}]}, {"molecule": "V5-KPC2 (protein, UniProt Q9BSL1 1-405) MFVQEEKIFAGKVLRLHICASDGAEWLEEATEDTSVEKLKERCLKHCAHGSLEDPKSITHHKLIHAASERVLSDARTILEENIQDQDVLLLIKKRAPSPLPKMADVSAEEKKKQDQKAPDKEAILRATANLPSYNMDRAAVQTNMRDFQTELRKILVSLIEVAQKLLALNPDAVELFKKANAMLDEDEDERVDEAALRQLTEMGFPENRATKALQLNHMSVPQAMEWLIEHAEDPTIDTPLPGQAPPEAEGATAAASEAAAGASATDEEARDELTEIFKKIRRKREFRADARAVISLMEMGFDEKEVIDALRVNNNQQNAACEWLLGDRKPSPEELDKGIDPDSPLFQAILDNPVVQLGLTNPKTLLAFEDMLENPLNSTQWMNDPETGPVMLQISRIFQTLNRT", "values": [{"measurement": "binding", "setting": "Flag-p65", "result": "binds"}, {"measurement": "binding", "setting": "Flag-KPC1", "result": "binds"}]}, {"molecule": "KPC2 fused to the N-term part of Renilla luciferase (F1) (protein, UniProt Q9BSL1 1-405) MFVQEEKIFAGKVLRLHICASDGAEWLEEATEDTSVEKLKERCLKHCAHGSLEDPKSITHHKLIHAASERVLSDARTILEENIQDQDVLLLIKKRAPSPLPKMADVSAEEKKKQDQKAPDKEAILRATANLPSYNMDRAAVQTNMRDFQTELRKILVSLIEVAQKLLALNPDAVELFKKANAMLDEDEDERVDEAALRQLTEMGFPENRATKALQLNHMSVPQAMEWLIEHAEDPTIDTPLPGQAPPEAEGATAAASEAAAGASATDEEARDELTEIFKKIRRKREFRADARAVISLMEMGFDEKEVIDALRVNNNQQNAACEWLLGDRKPSPEELDKGIDPDSPLFQAILDNPVVQLGLTNPKTLLAFEDMLENPLNSTQWMNDPETGPVMLQISRIFQTLNRT", "values": [{"measurement": "binding", "setting": "[2]", "result": "binds"}]}]}
